Results on 21 molecules are retold here after US20240400677A1.

Positions count from the first letter of the chain named. These are yes or no findings as the source states them, for the method shown.

B1: Antibody 55 (antibody, V domains shown)
VH: EVQLLESGGGLVQPGGSLRLSCAASGFTFSNSDMNWVRQAPGKGLEWVSYISSSGNTIYYADSVKGRFTISRDNSKNTLYLQMNSLRAEDTAVYYCARSNWNYPLDYYYMDVWGKGTTVTVSS
VL: DIVMTQSPLSLPVTPGEPASISCRSSQSLLHSNGYNYLDWYLQKPGQSPQLLIYAASSLQSGVPDRFSGSGSGTDFTLKISRVEAEDVGVYYCMQGTHWPPTFGQGTKVEIK
B2: Antibody 70 (antibody, V domains shown)
VH: QVQLVQSGAEVKKPGASVKVSCKASGYTFSNYYMHWVRQAPGQGLEWMGWMNPNSGNTGYAQKFQGRVTMTRDTSTSTVYMELSSLRSEDTAVYYCARASMYSSSGFDYWGQGTLVTVSS
VL: B1 VL with A55L, S58T, L59R, Q60A, S61P, T97S, T102S, K108R, V109L
B3: Antibody 71 (antibody, V domains shown)
VH: QVQLVQSGAEVKKPGASVKVSCKASGYTFTSYYIHWVRQAPGQGLEWMGTINPSGGSTSYAQKFQGRVTMTRDTSTSTVYMELSSLRSEDTAVYYCARETSRWLRDYYYGMDVWGQGTTVTVSS
VL: B1 VL with A55D, Q60E, P101L, Q105G
B4: Antibody 56 (antibody, V domains shown)
VH: QVQLVQSGAEVKKPGASVKVSCKASGYTFTSYYMHWVRQAPGQGLEWMGWVDPNNGDTGYAQKFQGRVTMTRDTSTSTVYMELSSLRSEDTAVYYCARDNWGSLDVWGKGTTVTVSS
VL: B1 VL with S58T, T97L, H98Q, W99T, P100L, P101Y, T102S, V109L
B5: Antibody 97 (antibody, V domains shown)
VH: QVQLVQSGAEVKKPGASVKVSCKASGHTFNNNYIHWVRQAPGQGLEWMGIINPSGGSTSYAQKFQGRVTMTRDTSTSTVYMELSSLRSEDTAVYYCARQIQDYGYYYYGMDVWGQGTTVTVSS
VL: EIVMTQSPATLSVSPGERATLSCRASQSVSKYLAWYQQKPGQAPRLLIYAISARAAGIPARFSGSGSGTEFTLTISSLQSEDFAVYYCQQYYSSPPTFGQGTKVEIK
B6: Antibody 90 (antibody, V domains shown)
VH: QVQLVQSGAEVKKPGASVKVSCKASGYTFTSYYMHWVRQAPGQGLEWMGWMNPNSDNTGYAQKFQGRVTMTRDTSTSTVYMELSSLRSEDTAVYYCARVGVGYGYYYYGMDVWGQGTTVTVSS
VL: DIQMTQSPSSLSASVGDRVTITCRAGQSIGDYLNWYQQKPGKAPKLLIYAASSLQSGVPSRFSGSGSGTDFTLTISSLQPEDFATYYCQQSYSTPWTFGQGTKVEIK
B7: Antibody 69 (antibody, V domains shown)
VH: B6 VH
VL: B6 VL
B8: Antibody 95 (antibody, V domains shown)
VH: B2 VH with S30T, N31S, A99D, S100Q, S105Y, F107M, Y109V, L115T
VL: B6 VL with G26S, Q27E, G30T, D31N, Y32W, N34A, A50K, Q55E, S93G, W96Y
B9: Antibody 72 (antibody, V domains shown)
VH: QVQLVQSGAEVKKPGASVKVSCKASGYTFTDNYLHWVRQAPGQGLEWMGIIETSGGSTDYAQKFQGRVTMTRDTSTSTVYMELSSLRSEDTAVYYCARSFGGYSYDDAFDIWGQGTTVTVSS
VL: B6 VL with R24Q, G26S, S28G, G30S, D31N, T94S, W96Y
B10: Antibody 62 (antibody, V domains shown)
VH: QVQLVQSGAEVKKPGASVKVSCKASGGTFSNYDINWVRQAPGQGLEWMGWISAYNGNTNYAQKLQGRVTMTRDTSTSTVYMELSSLRSEDTAVYYCAAEAYGDYSLDPWGQGTLVTVSS
VL: B6 VL with R24Q, G26S, S28G, G30S, D31S, S56N, W96I, K103R, V104L
B11: Antibody 57 (antibody, V domains shown)
VH: QVQLVQSGAEVKKPGASVKVSCKASGYTFTSYYMHWVRQAPGQGLEWMGWINPNSGNAGFAQKFQGRVTMTRDTSTSTVYMELSSLRSEDTAVYYCARGPVYSYGPFDYWGQGTLVTVSS
VL: B6 VL with G26S, S28G, G30S, D31T, N34A, S53T, Y92H, T94A, W96I
B12: Antibody 64 (antibody, V domains shown)
VH: QVQLVQSGAEVKKPGASVKVSCKASGYTFTSYYMHWVRQAPGQGLEWMGRINPNSGGTKYAQKFQGRVTMTRDTSTSTVYMELSSLRSEDTAVYYCARLGSAYFDLWGRGTLVTVSS
VL: DIQMTQSPSSLSASVGDRVTITCRASQSVDTWLAWYQQKPGKAPKLLIYEASTLESGVPSRFSGSGSGTDFTLTISSLQPEDFATYYCQQANSFPITFGQGTRLEIK
B13: Antibody 8 (antibody, V domains shown)
VH: QVQLVQSGAEVKKPGASVKVSCKASGYTFTGYHIHWVRQAPGQGLEWMGWINPNSGGTNYAQKFQGRVTMTRDTSINTAYMELNRLRSDDTAVFYCARERVGYCSRPSCLDDLNIWGQGTMVTVSS
VL: DIQMTQSPSTLSASVGDRVTITCRASQSISSWLAWYQQKPGKAPKLLIYKASSLETGVPSRFSGSGSGTEFTLTISSLQPDDFATYYCQQYDSYYTFGQGTKLEIK
B14: Antibody 96 (antibody, V domains shown)
VH: QVQLVQSGAEVKKPGASVKVSCKASGYTFTRYDINWVRQAPGQGLEWMGWMNPNSGNTGYAQKLQGRVTMTRDTSTSTVYMELSSLRSEDTAVYYCARERVGYCSSTSCLHPLDYWGQGTLVTVSS
VL: DIQMTQSPSSLSASVGDRVTITCRASQGIRNDLGWYQQKPGKAPKLLIYSASNLQSGVPSRFSGSGSGTDFTLTISSLQPEDFATYYCQQSYDVPLTFGGGTKVEIK
B15: Antibody 58 (antibody, V domains shown)
VH: QVQLVQSGAEVKKPGASVKVSCKASGYTFTAYYMHWVRQAPGQGLEWMGIINPSGGSTSYAQKFQGRVTMTRDTSTSTVYMELSSLRSEDTAVYYCARDSGWYAPGYYYGMDVWGQGTTVTVSS
VL: B14 VL with Q27E, G28S, R30S, N31H, D32W, G34A, S50G, N53T, D93T, V94P
B16: Antibody 67 (antibody, V domains shown)
VH: QVQLVQSGAEVKKPGASVKVSCKASGYTFTNFDINWVRQAPGQGLEWMGWISAYNGHTNYAQNLQGRVTMTRDTSTSTVYMELSSLRSEDTAVYYCAQEAAAGYFDYWGQGTLVTVSS
VL: B14 VL with G28D, G34A, S50D, Q55E, S56T, D93G, V94T, L96Y, G100Q, V104L
B17: Antibody 60 (antibody, V domains shown)
VH: EVQLLESGGGLVQPGGSLRLSCAASGFTLGSYWMHWVRQAPGKGLEWVSLISWDGGSTYYADSVKGRFTISRDNSKNTLYLQMNSLRAEDTAVYYCAKGPWVGYSGYDLNYYYYGMDVWGQGTTVTVSS
VL: DIQMTQSPSSLSASVGDRVTITCRASQDIRRALAWYQQKPGKAPKLLIYAASSLQSGVPSRFSGSGSGTDFTLTISSLQPEDFATYYCLQHNSYPPTFGQGTKLEIK
B18: Antibody 63 (antibody, V domains shown)
VH: QVQLVQSGAEVKKPGASVKVSCKASGYTFTGYYMHWVRQAPGQGLEWMGIINPSGGSTNYAQKFQGRVTMTRDTSTSTVYMELSSLRSEDTAVYYCARGPIGYGMDVWGQGTLVTVSS
VL: B17 VL with D28G, R30G, R31N, A32D, A34G, S53N, Q55E, S56T, N92H, P96F
B19: Antibody 89 (antibody, V domains shown)
VH: QVQLVQSGAEVKKPGASVKVSCKASGGTFSSYAISWVRQAPGQGLEWMGIINPSSSSTGYAQKFQGRVTMTRDTSTSTVYMELSSLRSEDTAVYYCARAGYYDSSGYYYSPYYGMDVWGQGTTVTVSS
VL: EIVMTQSPATLSVSPGERATLSCRASQSISGSYLAWYQQKPGQAPRLLIYGASTRATGIPARFSGSGSGTEFTLTISSLQSEDFAVYYCQQYGSFPFTFGPGTKVDIK
B20: Antibody 66 (antibody, V domains shown)
VH: B19 VH
VL: B19 VL
B21: Antibody 54 (antibody, V domains shown)
VH: QVQLVQSGAEVKKPGASVKVSCKASGYSFSDYYMHWVRQAPGQGLEWMGWMSPNSGNTGYAQKFQGRVTMTRDTSTSTVYMELSSLRSEDTAVYYCARQREEYGHYYYGMDVWGQGTMVTVSS
VL: B19 VL with I29L, S30G, G31S, S32T, G93Y, F95S, F97P, P101Q, D106E

The target of the experiment is Human SIRPβ1 (plate-coated extracellular domain) (Homo sapiens). Nature of the experiment: ELISA, coated SIRP ECD (2 µg/mL), anti-human IgG, luminescence. For orientation: An ELISA detects its analyte on a solid surface through an enzyme-linked reagent.
In the case of B1, the binding entry is listed as “no binding (tested: about 40 µg/mL)”. Under B2 stands “no binding (tested: about 40 µg/mL)”. As for B3, the binding result is “no binding (tested: about 40 µg/mL)”. As to B4, the binding entry is listed as “no binding (tested: about 40 µg/mL)”. The entry for B5 is “no binding (tested: about 60 µg/mL)”. With B6, the binding result is “no binding (tested: about 60 µg/mL)”. Regarding B7, the binding result is listed as “no binding (tested: about 40 µg/mL)”. On to B8, for which the binding result is “no binding (tested: about 60 µg/mL)”. Consider B9, for which the binding entry was “no binding (tested: about 40 µg/mL)”. The entry for B10 is “no binding (tested: about 40 µg/mL)”. On to B11, for which the binding entry is “no binding (tested: about 40 µg/mL)”. As to B12, the binding result is given as “no binding (tested: about 40 µg/mL)”. Take B13: the binding entry is “no binding (tested: about 40 µg/mL)”. Under B14 stands “no binding (tested: about 60 µg/mL)”.

Take B15: the binding entry is “no binding (tested: about 40 µg/mL)”. Turning to B16, the binding result is recorded as “no binding (tested: about 40 µg/mL)”. As for B17, the binding entry is reported as “no binding (tested: about 40 µg/mL)”.

In the case of B18, the binding result is “no binding (tested: about 40 µg/mL)”. Consider B19, for which the binding result is “no binding (tested: about 60 µg/mL)”.

Consider B20, for which the binding entry is “no binding (tested: about 40 µg/mL)”.

Regarding B21, the binding entry was “no binding (tested: about 40 µg/mL)”.
